Measurements taken from PubChem BioAssay AID1439 (NMMLSC, 2008).
Screen size: about 220,000 compounds; about 770 (0.35%) were called active. The shares of active, inactive and inconclusive entries below differ from those in the screen. Rule as the data show it: active = binding response below about 49% or above about 150%; inconclusive = no clear call, values can overlap the other calls; inactive = in between.

Protein sequences, listed by entry. Tags and fused reporters are not part of them.
UniProt P09471, whole entry, looked up: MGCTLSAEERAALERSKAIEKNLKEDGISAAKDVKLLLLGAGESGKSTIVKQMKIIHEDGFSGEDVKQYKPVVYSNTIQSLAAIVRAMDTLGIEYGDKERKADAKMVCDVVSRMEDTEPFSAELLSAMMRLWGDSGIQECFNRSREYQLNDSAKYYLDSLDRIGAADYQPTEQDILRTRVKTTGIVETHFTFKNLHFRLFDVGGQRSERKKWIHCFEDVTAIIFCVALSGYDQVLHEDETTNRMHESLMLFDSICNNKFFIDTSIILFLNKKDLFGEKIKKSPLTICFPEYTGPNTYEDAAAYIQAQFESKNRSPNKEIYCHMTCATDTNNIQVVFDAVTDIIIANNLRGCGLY

Molecular target: Guanine nucleotide-binding protein G(o) subunit alpha (Homo sapiens) (UniProt P09471)
Test: RGS7-Galphao binding modulators, primary screen, biochemical, multiplexed bead flow cytometry (AID 1439);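 also: fluorescent Galphao held in activated GDP-AlF4 state binding bead-coupled RGS7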
Conditions: at 10 µM, actives lie on both sides

Row | Compound | binding response (% of control)
1 | COc1ccc(O)c(/C=N/N=C2/C(=O)Nc3ccccc32)c1 | inconclusive: 95.8%
2 | C/C(CC(=O)Nc1ccc(Cl)cc1)=N\NC(=O)C(=O)N1CCCCC1 | inactive: 93.7%
3 | CCc1ccc(NC(=S)Nn2cnnc2)cc1 | inconclusive: 87%
4 | CCN(C(=O)COC(=O)c1c(C)c(-c2ccccc2)nc2ccccc12)C1CCS(=O)(=O)C1 (stereo not given) | inconclusive: 94.6%
5 | O=C(CNC(=O)c1ccccc1)NCc1ccc(Cl)cc1 | active: 150% [activator]
6 | N#Cc1cccn1-c1nccc(-c2cccs2)n1 | inconclusive: 82.2%
7 | CC1(OC(=O)C2CCCC2)C(=O)C=C2C=C(c3ccsc3)N(CCc3c[nH]c4ccccc34)C=C2C1=O (stereo not given) | inconclusive: 61.9%
8 | O=C(COC(=O)CCSc1ccccc1)NCc1ccccc1 | inconclusive: 121%
9 | Cc1cc(C)nc(/N=C(\N)Nc2ccc(SC(F)F)cc2)n1 | inconclusive: 119%
10 | O=c1[nH][nH]cc1C=NCc1cccnc1 | inconclusive: 120%
11 | C/C(=N\Nc1nc(C(=O)O)cs1)c1ccccc1 | inconclusive: 63.3%
12 | COc1ccccc1OCCNC(=O)C(c1ccccc1)c1ccccc1 | inconclusive: 107%
13 | O=C(Cn1c2[n+](c3ccccc31)CC(O)CS2)c1ccccc1 (stereo not given) | inactive: 98%
14 | COc1ccc(N(CC(=O)NCc2cccs2)S(=O)(=O)c2cccnc2)cc1 | inactive: 82.2%
15 | Clc1ccccc1-c1nc2ccccc2[nH]1 | inconclusive: 45.2%
16 | CCOc1cc(/C=N/Nc2nn3cnnc3c3ccccc23)ccc1O | inconclusive: 106%
17 | COc1ccc(COC(=O)N/C=C/c2ccco2)cc1 | inconclusive: 69.3%
18 | Cn1cc(C(=O)NCc2cccnc2)c(=O)c2cc(S(=O)(=O)N3CCCCCC3)ccc21 | inconclusive: 101%
19 | Cc1ccc(O)c(CO)n1 | inconclusive: 101%
20 | Cc1cc(OCC(=O)Nc2ccccc2F)nc(C(C)C)n1 | inactive: 102%
21 | COc1ccc(C(=O)NCC(=O)N/N=C(C)\C=C\c2ccccc2)cc1OC | inactive: 90.9%
22 | CC(C)c1ccc(NC(=O)C2=NNC(=O)CC2)cc1 | inconclusive: 297%
23 | C=CCn1c(=NC(=O)c2ccc(S(=O)(=O)N3CCCC3)cc2)sc2cc(NC(C)=O)ccc21 | inactive: 91.7%
24 | On1c(-c2ccccc2)nc2ccccc21 | inconclusive: 125%

3 entries already listed, arranged by molecular weight, low to high:
Row | Compound | binding response (% of control)
24 | On1c(-c2ccccc2)nc2ccccc21 | inconclusive: 125%
4 | CCN(C(=O)COC(=O)c1c(C)c(-c2ccccc2)nc2ccccc12)C1CCS(=O)(=O)C1 (stereo not given) | inconclusive: 94.6%
7 | CC1(OC(=O)C2CCCC2)C(=O)C=C2C=C(c3ccsc3)N(CCc3c[nH]c4ccccc34)C=C2C1=O (stereo not given) | inconclusive: 61.9%

More results follow.

Row | Compound | binding response (% of control)
25 | CO/N=C/C1CCN(c2ncc(C(F)(F)F)cc2Cl)C1=O (stereo not given) | inactive: 106%
26 | COCc1[nH]c(=S)c(C#N)cc1C(=O)OC | inconclusive: 122%
27 | CCn1c(CSCc2ccc(Cl)cc2)n[nH]c1=S | inconclusive: 95.5%
28 | Cc1ccccc1-n1nnnc1SCC(=O)N(C)C1CCS(=O)(=O)C1 (stereo not given) | inconclusive: 103%
29 | COc1ccc(/C(C)=N\O)cc1OC | inconclusive: 121%
30 | Cc1cc(C)n(CC(=O)c2ccc(Cl)cc2)n1 | inconclusive: 112%
31 | CC(C)CC(NC(N)=O)C(=O)NCCc1ccc(Cl)cc1Cl (stereo not given) | inconclusive: 110%
32 | O=C(CCc1nnc(CCC2CCCCC2)o1)NCc1ccon1 | inactive: 107%
33 | COCc1cc(C)nc(OCC(=O)N/N=C/c2ccc(C)cc2)c1C#N | inconclusive: -94%
34 | CC(C)N(C(=O)CSc1nnc(NC(=O)Cc2cccs2)s1)C(C)C | inconclusive: 95.6%
35 | O=C1CCC(C(=O)Nc2cccc(S(=O)(=O)N3CCOCC3)c2)N1 (stereo not given) | inactive: 116%
36 | COc1ccc(Oc2cccc(Cl)c2CNC(=O)CCCC(=O)O)cc1 | inconclusive: 102%
37 | CCOc1ccccc1-n1nnnc1SCC(=O)O | inconclusive: 95.5%
38 | CN(C)S(=O)(=O)c1ccc(NC(=O)c2ccc3ncsc3c2)cc1 | inconclusive: 194%
39 | O=C1/C(=C/c2cccnc2)SC(=S)N1Nc1ccccc1 | inconclusive: -806%
40 | COCCn1c(SCC(=O)NNC(=O)Cc2ccccc2)nc2ccccc2c1=O | inconclusive: 89.9%
41 | C/C(=N/Nc1nc(-c2ccccc2)c(CC(=O)O)s1)c1ccccc1 | inconclusive: 101%
42 | COc1ccc(CCC(=O)O)cc1OC | inconclusive: 117%
43 | Nc1nc2nn(-c3ccccc3)nc2c(=O)[nH]1 | inconclusive: 627%
44 | CCOC(=O)CSc1nc2c(sc(=S)n2CCc2ccccc2)c(=O)n1Cc1ccco1 | inactive: 113%
45 | CC1CCN(c2ccc(C(=O)OCC(=O)NCCN3C(=O)CSC3=O)cc2[N+](=O)[O-])CC1 | inconclusive: 90.3%
46 | CCN(CC)S(=O)(=O)c1ccc(N/N=C(\C)c2ccc(OC)cc2O)nc1 | inconclusive: 99.6%
47 | COc1ccc(-c2csc3nc(-c4ccccc4F)oc(=O)c23)cc1 | inconclusive: 96.7%
48 | CN(C)c1c(-c2ccccc2)cc(-c2ccccc2)[nH]c1=O | inconclusive: 85.7%

Row | Compound | binding response (% of control)
49 | CC(C)=NNC(=O)C1=NNC(=O)C1 | inconclusive: 103%
50 | CCOC(=O)c1sc(Nc2cccc(Cl)c2)nc1C | inconclusive: 121%
51 | CC1CCC(C(C)C)C(OCC(O)CNC(C)C)C1 (stereo not given) | inconclusive: 85.9%
52 | CCN(CC)C(=O)Cn1c(=O)oc2ccccc21 | inconclusive: 112%
53 | COc1ccc(CC(=O)N2CCc3cc(OC)c(OC)cc3C2O)cc1OC (stereo not given) | inconclusive: 111%
54 | CCc1cccc(C)c1NC(=O)C(c1ccccc1)N1CCC1=O (stereo not given) | inactive: 94.2%
55 | OC(CNCc1ccco1)Cn1c2ccccc2c2ccccc21 (stereo not given) | inactive: 102%
56 | O=C(Nc1ccc(F)cc1F)Nc1sccc1-c1nc2ccccc2s1 | inconclusive: 114%
57 | C=CCC(Nc1ccccc1)c1ccc(OC)c(OC)c1 (stereo not given) | inconclusive: 258%
58 | CCCN1C(=O)C2(C(C(=O)c3ccc(C)o3)=C(O)C(=O)N2CCCOC)c2ccccc21 (stereo not given) | inconclusive: 101%
59 | Cn1c2ccccc2c2cnn(CC(=O)N3CCCCC3)c(=O)c21 | inconclusive: 114%
60 | COc1cc([N+](=O)[O-])cc(/C=N/NC(=O)c2cc(-c3ccccc3)nc3ccccc23)c1O | inconclusive: 121%
61 | Cc1cc(C)c2c(N)c(C(=O)N/N=C/c3cccs3)sc2n1 | inconclusive: 60.8%
62 | Nc1ccc(OCCCc2c(N)nc(N)nc2N)cc1 | inconclusive: 130%
63 | CCN(CC)CCCNc1nc(N)c([N+](=O)[O-])c(NCCO)n1 | inconclusive: 56.6%
64 | C#CCOC(=O)Nc1cnccc1C(F)(F)F | inconclusive: 72.2%
65 | COCCn1c(C)cc(C(=O)CSc2nc3ccccc3c(=O)n2Cc2ccco2)c1C | inactive: 99.5%
66 | COc1ccc(/C=N/NC(=O)c2ccc(Br)cc2)cc1CN1CCOCC1 | inconclusive: -34.3%
67 | N=C1C(c2ccccc2)=C(O)CN1c1cccc(S(=O)(=O)N2CCCCC2)c1 | inconclusive: 69.5%
68 | O=[N+]([O-])c1ccc2c(c1)[nH]c(=S)n2-c1ccccc1 | inactive: 124%
69 | C=CCNC(=O)COc1cc(C)cc(C)c1C | inconclusive: 66.7%
70 | CCn1c(CSc2ncn[nH]2)nc2cc(C(=O)O)ccc21 | inconclusive: 87.8%
71 | O=C(O)c1cc(N2C(=O)C3CC=CCC3C2=O)ccc1NCc1cccnc1 (stereo not given) | inactive: 102%
72 | CCc1cc(Br)ccc1N1C(=O)C2CC=CCC2C1=O (stereo not given) | inactive: 98.1%

Row | Compound | binding response (% of control)
73 | CCOC(=O)C1(CCCc2ccccc2)CCN(C(=O)Cn2nc(C)nc2C)CC1 | inconclusive: 131%
74 | CCOc1ccc2nc(Nc3nc(CSc4nnnn4-c4ccccc4)cc(=O)[nH]3)nc(C)c2c1 | inactive: 104%
75 | S=c1[nH]nc(-c2cc(-c3ccccc3)n[nH]2)n1/N=C/C=C/c1ccccc1 | inconclusive: 76%
76 | O=C(c1cccnc1)N1CCC(Oc2ccc(C(=O)N3CCCCO3)cc2)CC1 | inactive: 101%
77 | CCCOP(=O)(c1ccc(N(C)C)cc1)C(Nc1ccccc1)c1ccc(C)cc1 (stereo not given) | inconclusive: 48%
78 | COc1ccccc1NC(=S)N(CCCN1CCOCC1)Cc1cccs1 | inactive: 99.1%
79 | CC(=O)Nc1ccc(Cc2nc3c([nH]2)c(=O)n(C)c(=O)n3C)cc1 | inconclusive: 221%
80 | CCCNCc1cc(OC)c(OCC(=O)Nc2ccccc2)cc1Br | inconclusive: 90.1%
81 | Cc1ccc(S(=O)(=O)NC(=O)Nc2ccc(OC(F)F)cc2)cc1 | inconclusive: -425%
82 | Cc1cccc(NC(=O)Nc2ccc(S(N)(=O)=O)cc2)c1 | inconclusive: 88.5%
83 | CC(C)(C)c1ccc(-c2nnc(SCC(=O)NC3CCS(=O)(=O)C3)n2N)cc1 (stereo not given) | inactive: 107%
84 | CSc1ccc(Cl)c(C(=O)Nc2nccs2)c1 | inconclusive: 80.7%
85 | NNC(=O)CCCNc1ncc(C(F)(F)F)cc1Cl | inconclusive: 107%
86 | CC(=O)OCCCNc1cc(Sc2nc3ccccc3s2)c2nonc2c1[N+](=O)[O-] | inactive: 96%
87 | CCc1nnc(NC(=O)CSc2nnc(CCc3nc4ccccc4[nH]3)n2C)s1 | inactive: 98.7%
88 | O=c1cc(CN2CCC3(CC2)OCCO3)c2c(ccc3ccccc32)o1 | inactive: 103%
89 | O=C(CN1C(=O)C2CC=CCC2C1=O)NC1CCCCC1 (stereo not given) | inconclusive: 108%
90 | CCn1c(/C=C2\C(=O)N(C(C)C)c3ccccc32)nc2ccccc2c1=O | inconclusive: 79.8%
91 | CCCCCC(=O)NNC1CC(=O)N(c2cccc(OCC)c2)C1=O (stereo not given) | inconclusive: 155%
92 | CCN(CC)CCC(c1ccc(OC)cc1)c1c(O)cc(OC)cc1OC (stereo not given) | inconclusive: 133%
93 | CCOc1ccccc1N1CCN(C(=O)CC(C)C)CC1 | inactive: 94.2%
94 | CCn1c(=N)n(CC(O)COc2ccc(C)cc2)c2ccccc21 (stereo not given) | inconclusive: 74.9%
95 | FC(F)(F)c1cccc(-n2c(Cn3nnc4ccccc43)n[nH]c2=S)c1 | inconclusive: 45.4%
